PubChem BioAssay AID504804, Drosophila RNAi Screening Center – 2011

Screen: 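Fly genes whose loss lessens doxorubicin-driven cell death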 (primary screen)
Cell system: Drosophila Kc cells
Reagents: long dsRNA against Drosophila genes, 0.5 µg dsRNA per well
Time to read-out: 96 h (48 h knock-down, then 48 h drug)
Challenge: doxorubicin 5 µg/ml for 48 h, added 48 h after dsRNA
Detection: 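Luminescent ATP counts per replicate, not normalised, reflecting viable cells after 48 h dsRNA knock-down followed by 48 h of 5 µg/ml doxorubicin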
Direction: raw ATP luminescence: higher = more viable cells, protection from doxorubicin
Rule for the call: 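Active when both duplicate wells lie at least 2 SD above the plate mean and protection is confirmed by rescreening and independent dsRNAs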
The deposit covers about 19,000 reagents; shown is an unselected part of those that have a named target and a result. Over the whole deposit, 47 (0.25%) are marked active. 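Signals are raw, not normalised; exact z-scores behind calls not deposited; actives needed confirmation, so some wells reaching 2 SD are inactive.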 A number with no mark means an inactive call. Names joined by + are all predicted targets of the reagent. Reagent sequences are not shown.

| target | dsRNA | SD above plate mean | raw ATP luminescence, replicate 1 | raw ATP luminescence, replicate 2 |
| --- | --- | --- | --- | --- |
| CG13113 (GeneID 34271) | DRSC02211 | – | 47400 | 66780 |
| CG8774 (GeneID 41635) | DRSC16445 | – | 70493 | 26093 |
| VhaPPA1-1 (GeneID 45247) | DRSC16170 | – | 56237 | 30913 |
| Gle1 (GeneID 35849) | DRSC06485 | – | 47097 | 49040 |
| l(2)efl (GeneID 37744) | DRSC04698 | – | 76867 | 69977 |
| CG17593 (GeneID 33573) | DRSC00504 | – | 23260 | 23177 |
| CG3502 + CG9863 | DRSC04578 | – | 43573 | 48740 |
| Frmd5 (GeneID 34398) | DRSC02802 | – | 39133 | 76097 |
| t-Grip91 (GeneID 34931) | DRSC01506 | – | 3.33e5 | 2.61e5 |
| Trm7-34 (GeneID 42508) | DRSC16171 | – | 55440 | 67380 |
| ND-51 (GeneID 33852) | DRSC03145 | – | 76340 | 48337 |
| Vps45 (GeneID 41153) | DRSC16398 | – | 57640 | 57373 |
| Unr (GeneID 38963) | DRSC10761 | – | 55553 | 38543 |
| CG11672 (GeneID 40977) | DRSC14344 | – | 66333 | 54790 |
| CG15435 (GeneID 33655) | DRSC00450 | – | 18683 | 20677 |
| CG8360 (GeneID 34122) | DRSC03085 | – | 38870 | 69097 |
| Ada1-1 + Ada1-2 | DRSC01220 | – | 2.86e5 | 3.08e5 |
| Ada1-1 + Ada1-2 | DRSC01222 | – | 2.80e5 | 2.48e5 |
| nej (GeneID 43856) | DRSC18006 | – | 96030 | 85890 |
| CG15628 (GeneID 33681) | DRSC00256 | – | 1.30e5 | 1.16e5 |
| CG15628 (GeneID 33681) | DRSC00463 | – | 34243 | 40393 |
| RnrL (GeneID 34392) | DRSC03413 | – | 80153 | 60937 |
| CG32652 (retired record) (GeneID 318141) | DRSC18942 | – | 2.02e5 | 2.09e5 |
| Mo25 (GeneID 39858) | DRSC11224 | – | 29743 | 23460 |
| CG3473 (GeneID 34849) | DRSC01915 | – | 52523 | 59133 |
| CG5071 (GeneID 43090) | DRSC15710 | – | 64330 | 60240 |
| CG14441 (GeneID 31611) | DRSC17934 | – | 16320 | 20620 |
| gom (GeneID 43934) | DRSC04690 | – | 63147 | 50970 |
| Rme-8 (GeneID 35939) | DRSC07054 | – | 89527 | 77973 |
| Sec10 (GeneID 42863) | DRSC17053 | – | 39787 | 46380 |
| CG12994 (GeneID 50350) | DRSC19192 | – | 2.06e5 | 2.16e5 |
| CG12994 (GeneID 50350) | DRSC19514 | – | 2.81e5 | 2.18e5 |
| Ggamma30A (GeneID 45234) | DRSC02715 | – | 43630 | 82870 |
| Ggamma30A (GeneID 45234) | DRSC03331 | – | 47353 | 75373 |
| CG8343 (GeneID 35544) | DRSC04905 | – | 65777 | 65323 |
| CG11052 (GeneID 49997) | DRSC14288 | – | 58460 | 57637 |
| CG31075 (GeneID 43244) | DRSC16016 | – | 74140 | 39320 |
| wol (GeneID 34134) | DRSC03077 | – | 1.05e5 | 69790 |
| boil (GeneID 31416) | DRSC17872 | – | 52460 | 64130 |

As entered above:
For “raw ATP luminescence, replicate 1”, Ggamma30A (GeneID 45234) [DRSC03331] reads 47353
Entry of Trm7-34 (GeneID 42508) [DRSC16171] in “raw ATP luminescence, replicate 1”: 55440
Entry for CG3473 (GeneID 34849) [DRSC01915] under “raw ATP luminescence, replicate 2”: 59133
Entry for CG13113 (GeneID 34271) [DRSC02211] under “raw ATP luminescence, replicate 1”: 47400
Value for VhaPPA1-1 (GeneID 45247) [DRSC16170] in “raw ATP luminescence, replicate 2”: 30913
Value for wol (GeneID 34134) [DRSC03077] under “raw ATP luminescence, replicate 2”: 69790

Further entries:
| target | dsRNA | SD above plate mean | raw ATP luminescence, replicate 1 | raw ATP luminescence, replicate 2 |
| --- | --- | --- | --- | --- |
| CG3323 (GeneID 31439) | DRSC18303 | – | 45060 | 43820 |
| CG17124 (GeneID 34485) | DRSC02580 | – | 51003 | 87517 |
| Osi22 (GeneID 41632) | DRSC16442 | – | 68530 | 68130 |
| CG5466 (GeneID 42444) | DRSC15808 | – | 17330 | 19500 |
| ND-23 (GeneID 44207) | DRSC15526 | – | 39117 | 36720 |
| CG33695 + cana | DRSC01163 | – | 2.46e5 | 1.97e5 |
| CG33695 + cana | DRSC03503 | – | 40373 | 75590 |
| sp3 (GeneID 42545) | DRSC16354 | – | 51270 | 53720 |
| CG34181 (GeneID 5740634) | DRSC01071 | – | 2.43e5 | 2.18e5 |
| Gp210 (GeneID 35512) | DRSC04861 | – | 51117 | 46630 |
| Gp210 (GeneID 35512) | DRSC04900 | – | 78000 | 63233 |
| Lectin-galC1 (GeneID 35216) | DRSC03362 | – | 68137 | 61337 |
| CG42322 (GeneID 42455) | DRSC15112 | – | 49817 | 47060 |
| CG42322 (GeneID 42455) | DRSC15113 | at least 2 SD above plate mean | 96800 | 1.06e5 |
| CG42322 (GeneID 42455) | DRSC15114 | – | 54180 | 50970 |
| CG13858 (retired record) (GeneID 50058) | DRSC14708 | – | 47120 | 67940 |
| CG13858 (retired record) (GeneID 50058) | DRSC14709 | – | 53440 | 68700 |
| CG13858 (retired record) (GeneID 50058) | DRSC14710 | – | 70420 | 81140 |
| CG13858 (retired record) (GeneID 50058) | DRSC14711 | – | 73310 | 76320 |
| Pgm2a (GeneID 35923) | DRSC07068 | – | 61533 | 63740 |
| Calr (GeneID 41166) | DRSC16614 | – | 54883 | 51027 |
| mio (GeneID 33399) | DRSC00692 | – | 91520 | 98707 |
| Hmu (GeneID 43294) | DRSC16705 | – | 52510 | 38740 |
| CG5111 (GeneID 43085) | DRSC15717 | – | 56950 | 63600 |
| CG15431 (GeneID 33646) | DRSC00446 | – | 27053 | 39543 |
| Fancd2 (GeneID 2768674) | DRSC15208 | – | 71050 | 70050 |
| sprt (GeneID 246397) | DRSC07323 | – | 61073 | 60843 |
| ATPsynG (GeneID 46069) | DRSC02928 | – | 38080 | 66230 |
| CG6508 (GeneID 34493) | DRSC02963 | – | 49427 | 78307 |
| Vps20 (GeneID 37581) | DRSC04448 | – | 44913 | 46923 |
| hpRNA:CR32207 (GeneID 10178801) | DRSC09616 | – | 74043 | 59573 |
| CG3224 (GeneID 31600) | DRSC18295 | – | 36630 | 47200 |
| CG17764 (GeneID 31440) | DRSC18135 | – | 24680 | 24390 |
| Pak (GeneID 44039) | DRSC12602 | – | 65773 | 26933 |
| fus (GeneID 44095) | DRSC05569 | – | 93107 | 95313 |
| fus (GeneID 44095) | DRSC07107 | – | 80427 | 72140 |
| mRpL11 (GeneID 41757) | DRSC15482 | – | 70050 | 67900 |
| MFS12 (GeneID 35745) | DRSC07268 | – | 56373 | 67300 |
| l(3)mbn (GeneID 38701) | DRSC08793 | – | 1.25e5 | 71397 |
| BaraA1 + BaraA2 | DRSC05417 | – | 94180 | 1.02e5 |
| sage (GeneID 41105) | DRSC14580 | – | 1.68e5 | 1.73e5 |
| ETHR (GeneID 42523) | DRSC15915 | – | 26840 | 22090 |
| CG5653 (GeneID 39024) | DRSC10534 | – | 71527 | 71037 |
| Prx3 (GeneID 42109) | DRSC15883 | – | 64357 | 57487 |
| Agpat1 (GeneID 32230) | DRSC19879 | – | 3.29e5 | 3.20e5 |
| Agpat1 (GeneID 32230) | DRSC19880 | – | 3.20e5 | 3.22e5 |
| mof (GeneID 31518) | DRSC18795 | – | 37340 | 43270 |
| nrm (GeneID 40515) | DRSC11597 | – | 63200 | 53347 |
| nrm (GeneID 40515) | DRSC11599 | – | 65597 | 60823 |
| nrm (GeneID 40515) | DRSC11897 | – | 69633 | 73933 |
| bcd (GeneID 40830) | DRSC12624 | – | 46137 | 30373 |
| CG31960 (GeneID 319047) | DRSC00281 | – | 32823 | 37197 |
| yellow-c + CIAPIN1 | DRSC01898 | – | 60820 | 65920 |
| CR33319 (GeneID 3772025) | DRSC01826 | – | 92597 | 87903 |
| CG3740 (GeneID 31119) | DRSC18508 | – | 43010 | 62750 |
| CG32833 (GeneID 37650) | DRSC04596 | – | 73517 | 62947 |
| Drep3 (GeneID 36292) | DRSC06312 | – | 33850 | 26043 |
| Drep3 (GeneID 36292) | DRSC07529 | – | 2.38e5 | 2.41e5 |
| Tektin-C (GeneID 38653) | DRSC09741 | – | 56683 | 71520 |
| TotA (GeneID 44121) | DRSC13448 | – | 1.33e5 | 1.71e5 |
| CG33992 (retired record) + CG43755 | DRSC00012 | – | 2.51e5 | 2.60e5 |
| Wnt5 (GeneID 32838) | DRSC20300 | – | 2.55e5 | 2.71e5 |
| r-l (GeneID 42493) | DRSC17042 | – | 40447 | 42177 |
| Neos (GeneID 38795) | DRSC11235 | – | 55970 | 41443 |
| U4-U6-60K (GeneID 39955) | DRSC10624 | – | 47577 | 35160 |
| CG6665 (GeneID 36903) | DRSC07006 | – | 63097 | 64933 |
| Ccdc58 + CG34116 | DRSC10105 | – | 72263 | 68460 |
| RpL27 (GeneID 43103) | DRSC15638 | – | 36000 | 35220 |
